Values are the deposited “Percent Effect”, in %. The controls that fix the scale are not given in the record; negative values are as filed. Compounds were drawn at random from those tested, without regard to their results.

Mtb growth Cornell: 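Whole-cell assay for inhibitors of Mycobacterium tuberculosis growth, labelled Cornell in the record; the read-out is not stated. The concentration is filed as 10 mM, unlikely as a test dose, so the dose is not known. The record gives no direction; compounds strong in two other growth screens of this library score well above the rest, so higher reads as stronger inhibition. Of about 53,000 compounds tested this way, about 900 (1.7%) reached 50% or more in at least one test.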
Mtb heat-shock: 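Assay on Mycobacterium tuberculosis, filed only as a heat shock assay from Cornell; the read-out is not stated. The concentration is filed as 10 mM, unlikely as a test dose, so the dose is not known. The record gives no direction; compounds that gave an IC50 in retests scored well above the rest, so higher reads as stronger inhibition. Of about 69,000 compounds tested this way, about 930 (1.4%) reached 50% or more in at least one test.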

CCN(C(=O)c1ccc(-n2ncc(C#N)c2N)cc1)C1CCCC1 read Mtb growth Cornell: 30.67%; Mtb heat-shock: 25.04%. Result for O=c1c(CN2CCOCC2)coc2ccc(Cl)cc12 was Mtb heat-shock: -181.7%. With CCN1CC(C(=O)NCCCc2nc(C)c(C)s2)CC1=O (stereo not shown) the screen gave Mtb growth Cornell: 4.784%; Mtb heat-shock: 3.627%. For CC(C)(C)Cc1noc2ncc(C(=O)N3CCSCC3)cc12 the result was Mtb growth Cornell: 0.3425%; Mtb heat-shock: 28.3%. Cc1nc(C)c(S(=O)(=O)NC(=O)c2ccoc2)s1 gave Mtb growth Cornell: 19.14%; Mtb heat-shock: 20.81%. CCc1ncnc(N2CCOCC2C2CC2)c1F (stereo not shown) gave Mtb growth Cornell: 0.2478%; Mtb heat-shock: 6.872%.

COC(=O)N1CC2(CCNCC2)c2cc(Cl)ccc21.Cl read Mtb growth Cornell: 26.9%; Mtb heat-shock: 3.474%. With N#Cc1cccc(N2CCCC3(CCC(=O)N(C4CCCC4)C3)C2)n1 (stereo not shown) the screen gave Mtb growth Cornell: 35.55%; Mtb heat-shock: -0.3787%. Cc1ccc(N2CCCN(C(=O)C3CCCO3)CC2)nn1 (stereo not shown) read Mtb growth Cornell: -11.5%; Mtb heat-shock: -3.679%. Nc1cc(N2CCCC(CO)(Cc3ccccc3F)C2)nc(N)n1 (stereo not shown) gave Mtb heat-shock: -8.211%. For Cc1occc(=O)c1OCC(=O)N1CCc2ccccc2C1 the result was Mtb growth Cornell: 29%; Mtb heat-shock: -10.75%. CC(C)C(=O)Nc1ccc(Sc2nncn2C)c(Cl)c1 read Mtb growth Cornell: 2.453%; Mtb heat-shock: 10.98%.

Result for Cc1nccn1[C@@H]1CC[C@@H](N(C)S(=O)(=O)c2ccccc2F)[C@H]1O was Mtb growth Cornell: 44.37%; Mtb heat-shock: -3.908%. With O=C(Nc1cccc(N2CCN(CC3CC3)CC2)c1)C1CCOC1 (stereo not shown) the screen gave Mtb growth Cornell: -4.778%; Mtb heat-shock: -6.799%. CNc1ncccc1CN1CCN(c2cc(NC3CC3)nc(N)n2)CC1 gave Mtb growth Cornell: 5.329%; Mtb heat-shock: -3.183%. O=C(O)C(F)(F)F.[H][C@@]12CN(Cc3ccc(F)cc3)C[C@]1([H])[C@@H]2CC(=O)N1CCCC1 read Mtb heat-shock: 10.83%. With CCN(Cc1cnn(C)c1)C(=O)c1ccccc1O the screen gave Mtb growth Cornell: -6.81%; Mtb heat-shock: -6.908%. O=C(c1csc(Br)c1)N1CCCC(n2ccnc2)C1 (stereo not shown) read Mtb heat-shock: -3.775%.

With COCCN1CCc2cc(C(=O)N(C)C)c(NC(C)C)nc2CC1.O=C(O)C(F)(F)F.O=C(O)C(F)(F)F the screen gave Mtb growth Cornell: 2.789%; Mtb heat-shock: -16.37%. CC(Oc1ccc(S(C)(=O)=O)cc1)C(=O)NC(N)=O (stereo not shown) gave Mtb growth Cornell: -11.67%; Mtb heat-shock: 1.769%. With CCN1CCc2[nH]nc(C(=O)N3CCCC3C)c2C1.O=C(O)C(F)(F)F (stereo not shown) the screen gave Mtb heat-shock: -2.538%. Result for Cc1noc(C)c1-c1ccnc(C2CCN(S(=O)(=O)N(C)C)CC2)c1 was Mtb growth Cornell: -1.755%; Mtb heat-shock: -9.491%. Result for COCCN(CCOC)C(=O)c1ccoc1C was Mtb growth Cornell: -17.74%; Mtb heat-shock: 2.449%. With CC(C)NC(=O)CS(=O)(=O)c1cc2c(cc1Cl)OCCO2 the screen gave Mtb growth Cornell: -14.24%; Mtb heat-shock: -27.38%.

With CCn1nc(C)c(CNC(=O)NCC(C)(O)c2ccsc2)c1C (stereo not shown) the screen gave Mtb growth Cornell: 8.5%; Mtb heat-shock: 6.384%. CCN1CC(C(=O)N2CCc3cc(C(=O)N(C)C)n(C)c3C2)CCC1=O (stereo not shown) gave Mtb growth Cornell: -38.39%; Mtb heat-shock: 28.09%. For Cn1c2ccc(F)cc2c2ncn(CCCN(CCO)CCO)c(=O)c21 the result was Mtb growth Cornell: -15.46%; Mtb heat-shock: -8.961%. With CCN1CCN(C2CCN(C(C(N)=O)c3ccccc3)CC2)C1=O (stereo not shown) the screen gave Mtb growth Cornell: 0.353%; Mtb heat-shock: -10.45%. CS(=O)(=O)c1ccc(CNC(=O)NCc2cc[nH]n2)cc1 gave Mtb growth Cornell: 20.45%; Mtb heat-shock: -12.68%. For Cc1csc(N2CCCN(C(=O)c3occc3C)CC2)n1 the result was Mtb growth Cornell: -20.22%; Mtb heat-shock: -18.1%.

CC(=O)N[C@@H]1CN(C(=O)c2cc3ccccc3[nH]2)C[C@H]1c1ccc(C)o1 read Mtb growth Cornell: 17.03%; Mtb heat-shock: -3.484%. For O=C(O)C(F)(F)F.O=C(O)C(F)(F)F.c1ccc(CO[C@H]2CO[C@@]3(CCN(Cc4ccoc4)C3)C2)nc1 the result was Mtb heat-shock: 3.493%.

4 of the entries, repeated:

compound,Mtb growth Cornell,Mtb heat-shock
Cc1noc(C)c1-c1ccnc(C2CCN(S(=O)(=O)N(C)C)CC2)c1,-1.755%,-9.491%
CCN1CCN(C2CCN(C(C(N)=O)c3ccccc3)CC2)C1=O (stereo not shown),0.353%,-10.45%
CCN1CC(C(=O)N2CCc3cc(C(=O)N(C)C)n(C)c3C2)CCC1=O (stereo not shown),-38.39%,28.09%
CC(C)C(=O)Nc1ccc(Sc2nncn2C)c(Cl)c1,2.453%,10.98%

The values are deposited in ChEMBL (CHEMBL3988442, “University of Dundee, Small-Polar-MMV Screening Library” (2021)).